Source: PubChem BioAssay AID504465 (National Center for Advancing Translational Sciences (NCATS), 2011)
In all, about 2,100 compounds went through this assay and about 210 (10%) were called active. Inconclusive means that the source gave no clear call. Such entries were picked first, then a sample of the others. Calls follow the shape of the dose curve; as a rule, active = well fitted inhibition curve with a large enough effect; inconclusive = small, poorly fitted or top-dose-only effect, or effect the other way; inactive = no such curve, though single readings can be large or run the other way. A potency beside an inconclusive call is a rough fit, not a confirmed value.

Assay: IN Cell qHTS Assay for Inhibitors of the mTORC1 Signaling Pathway in MEF (Tsc2-/-, p53-/-) Cells: Sytravon; also: nearly all actives have a fitted effect of over 60% in size
Settings: phospho-rpS6 immunofluorescence, 24 h; activity, negative = inhibition: at 38.3 µM (top of the series)
In short: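 Immunofluorescence of rpS6 phosphorylation (Ser235/236) in mouse embryonic fibroblasts lacking Tsc2 and p53, after 24 h compound exposure; Hoechst-normalized signal imaged, each well scored as % active cells relative to rapamycin (7.5 nM) and DMSO controls.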
Potency is read from the fitted curve at half-maximal effect.

| SMILES | Potency | activity, negative = inhibition |
| --- | --- | --- |
| CCCN(CCC)CCCNC(=O)c1cc2c(-c3ccc(Cl)cc3)nn(C)c2s1 | active: 2.61 µM | – |
| COc1ccccc1N1CCN(CCCNC(=O)c2cnn(-c3ccccc3Cl)c2C2CCN(C(=O)OC(C)(C)C)CC2)CC1 | inconclusive: 16.5 µM [falling, single point] | – |
| Cc1ccc(CCNC(=O)c2cc3c(s2)-c2ccccc2OC3)cc1 | inconclusive: 23.3 µM [falling, single point] | – |
| COc1ccccc1CN1CCC(CNC(=O)c2cnn(-c3ccc(Cl)cc3)c2C2CCN(C(=O)OC(C)(C)C)CC2)CC1 | inconclusive: 26.1 µM [falling, single point] | – |
| CCN(CC)CCCNC(=O)c1nn(-c2ccc(C)cc2)c(=O)c2c1c1ccccc1n2C | inconclusive: 1.47 µM [falling, partial curve, poor fit] | – |
| CCN(CC)S(=O)(=O)c1ccc2oc(C(=O)NCc3ccccc3OC)c(C)c2c1 | – | inactive: 4.33% |
| COc1ccc(NC(=O)CSc2nc(-c3ccco3)cc(C(F)(F)F)n2)cc1Cl | – | inactive: -5% |
| CCCCS(=O)(=O)c1nc(-c2ccc(Br)cc2)cc(-c2ccccc2)c1C#N | active: 3.29 µM | – |
| Cc1cccc(NC(=O)CSc2nc3ccc(NC(=O)COc4ccccc4F)cc3s2)c1 | inconclusive: 2.33 µM [falling, partial curve, poor fit] | – |
| CN(C)c1ccc(C(CNS(=O)(=O)c2ccc(F)cc2)N2CCc3ccccc32)cc1 (stereo unspecified) | inconclusive: 23.3 µM [falling, single point] | – |
| Cc1ccc(CN2C(=O)c3ccccc3Sc3ccc(C(=O)NCCCN4CCOCC4)cc32)cc1 | active: 16.5 µM | – |
| COc1ccccc1CN1CCC(CNC(=O)c2cnn(-c3ccc(C)c(C)c3)c2C2CCN(C(=O)OC(C)(C)C)CC2)CC1 | inconclusive: 23.3 µM [falling, single point] | – |
| CCCN(CCC)CCNC(=O)c1cc(-c2ccc(Br)s2)nc2ccccc12 | inconclusive: 23.3 µM [falling, single point] | – |
| Cc1cncn1CCc1nc2c3ccccc3nc(SCC(=O)Nc3ccccc3F)n2n1 | – | inactive: -18.2% |
| Cc1cccc(Oc2coc3cc(OCC(=O)NC4CCCCC4)ccc3c2=O)c1 | inconclusive: 26.1 µM [falling, single point] | – |
| Fc1ccc(Nc2nc(Nc3ccc(F)cc3)nc(N3CCOCC3)n2)cc1 | active: 0.521 µM | – |
| CCOc1ccc(-c2cc(C(=O)N3CCN(c4cccc(C(F)(F)F)c4)CC3)c3ccccc3n2)cc1 | – | inactive: 6.25% |
| CCN1CCC(N(Cc2ccc3c(c2)OCO3)C(=O)Nc2ccc(Br)c(C)c2)CC1 | inconclusive: 20.7 µM [falling, single point] | – |
| CCCCOCc1cc(CN2CCN(c3cccc(Cl)c3)CC2)c(O)c2ncccc12 | inconclusive: 0.0046 µM [falling, full curve, poor fit] | – |
| CCN(CCCNC(=O)c1cc2cc3ccc(OC)cc3nc2s1)c1ccccc1 | inconclusive: 3.69 µM [falling, partial curve, poor fit] | – |
| Cc1cccc(CS(=O)(=O)c2ncc(Cl)c(C(=O)NCc3ccccc3)n2)c1 | active: 18.5 µM | – |
| Cc1cccc(C(=O)Nc2ccccc2SCc2cc(=O)c3cccc(C)c3[nH]2)c1 | – | inactive: -11.8% |
| Cc1ccc2nc3c(cc(C(=O)NC4CCCCC4)c(=N)n3C(C)C)c(=O)n2c1 | – | inactive: -26.3% |
| COc1ccc(CNC(=O)CCCc2cn(C)c3ccccc23)c(OC)c1 | – | inactive: 6.25% |

Ordered by count of non-hydrogen atoms (falling): 3 of the compounds above.

| SMILES | Potency | activity, negative = inhibition |
| --- | --- | --- |
| Cc1ccc(CN2C(=O)c3ccccc3Sc3ccc(C(=O)NCCCN4CCOCC4)cc32)cc1 | active: 16.5 µM | – |
| CCN1CCC(N(Cc2ccc3c(c2)OCO3)C(=O)Nc2ccc(Br)c(C)c2)CC1 | inconclusive: 20.7 µM [falling, single point] | – |
| Cc1cccc(CS(=O)(=O)c2ncc(Cl)c(C(=O)NCc3ccccc3)n2)c1 | active: 18.5 µM | – |

Record cards, as listed above. Order of values: Potency | activity, negative = inhibition
COc1ccccc1CN1CCC(CNC(=O)c2cnn(-c3ccc(Cl)cc3)c2C2CCN(C(=O)OC(C)(C)C)CC2)CC1 as listed: inconclusive: 26.1 µM [falling, single point] | –
CN(C)c1ccc(C(CNS(=O)(=O)c2ccc(F)cc2)N2CCc3ccccc32)cc1 (stereo unspecified) as listed: inconclusive: 23.3 µM [falling, single point] | –

The list continues:

| SMILES | Potency | activity, negative = inhibition |
| --- | --- | --- |
| COc1ccc(S(=O)(=O)N(C)Cc2nc(-c3cccc(C)c3)no2)cc1 | – | inactive: -29.1% |
| O=C(NCCCc1nc2ccccc2n1Cc1ccc(Cl)cc1)c1ccco1 | – | inactive: -10.8% |
| CC(=O)c1ccc(NC(=O)NCCc2c[nH]c3ccccc23)cc1 | inconclusive: 4.14 µM [falling, single point] | – |
| O=C(CC1(O)C(=O)N(CCc2ccccc2)c2ccc(Br)cc21)c1ccccc1O (stereo unspecified) | active: 20.7 µM | – |
| Cc1nnc(SCC(=O)NCc2ccccc2F)c2nn(-c3ccc(Cl)cc3)c(C)c12 | – | inactive: 0% |
| CCCN1Cc2cccc(C(=O)Nc3ccc(OC)cc3OC)c2C1=O | – | inactive: 13.5% |
| c1ccc(N2CCN(c3ncnc4c3nc3n4CCCCC3)CC2)cc1 | – | inactive: -7.73% |
| CCc1ccc2occ(CC(=O)NCc3ccccc3)c2c1 | inconclusive: 23.3 µM [falling, partial curve, poor fit] | – |
| CC(C)c1ccc(NC(=O)c2cc(S(=O)(=O)NCCC3=CCCCC3)ccc2F)cc1 | – | inactive: 6.25% |
| COc1ccc(S(=O)(=O)N(C(=O)c2ccncc2)c2ccc3oc(C)c(C(C)=O)c3c2)cc1 | inconclusive: 18.5 µM [falling, partial curve] | – |
| Cc1ccnc(NC(c2cc(C)ccc2O)c2ccc3cccnc3c2O)c1 (stereo unspecified) | inconclusive: 16.5 µM [falling, partial curve] | – |
| COc1ccccc1N1CCN(Cc2cc(COC(C)C)c3cccnc3c2O)CC1 | inconclusive: 9.27 µM [falling, partial curve, poor fit] | – |
| COc1ccc(Cl)cc1NC(=O)c1c(NCc2cccs2)sc2c1CCC(C)C2 (stereo unspecified) | – | inactive: 0% |
| CCN1CCc2c(sc(NC(=O)CSc3ccccc3)c2-c2nc3ccccc3s2)C1 | – | inactive: 0.735% |
| Cc1cc2oc(C(=O)N(Cc3ccc(N(C)C)cc3)CC3CCCO3)c(C)c2cc1C (stereo unspecified) | inconclusive: 26.1 µM [falling, single point] | – |
| CCC1=Nc2cc(C(=O)NCCCOC(C)C)ccc2Sc2ccc(C)cc21 | inconclusive: 0.185 µM [falling, full curve, poor fit] | – |
| COc1cc(C2Nc3ccccc3-c3nnc(SCc4ccc(Cl)cc4)nc3O2)ccc1OCC(=O)O (stereo unspecified) | inconclusive: 23.3 µM [falling, single point] | – |
| Cc1ccc(-n2ncc(C(=O)N3CCN(c4cccc(C)c4C)CC3)c2C2CCNCC2)c(C)c1 | inconclusive: 26.1 µM [falling, single point] | – |
| Cc1ccc2nc(-c3ccccn3)c(Nc3ccc(F)cc3)n2c1 | inconclusive: 5.21 µM [falling, single point] | – |
| Cc1nnc(NC(=O)c2nc(S(=O)(=O)Cc3ccccc3)ncc2Cl)s1 | active: 16.5 µM | – |
| Cc1cc(C)c2c(=O)cc(CSCC(=O)Nc3nnc(C)s3)[nH]c2c1 | – | inactive: -13.5% |
| NS(=O)(=O)c1ccc(CCNC(=O)C2COc3ccccc3C2)cc1 (stereo unspecified) | – | inactive: 0.324% |
| CC(C)CCNC(=O)c1cccc(Nc2nc3ccccc3n3nnnc23)c1 | active: 4.14 µM | – |
| Cc1ccc(NC(=O)c2cc(S(=O)(=O)NCCC3=CCCCC3)ccc2F)cc1F | – | inactive: 6.25% |

| SMILES | Potency | activity, negative = inhibition |
| --- | --- | --- |
| Cc1c(Cl)ccc2sc(NC(=O)c3ccc(S(=O)(=O)N4CCCc5ccccc54)cc3)nc12 | – | inactive: -20.5% |
| O=C1c2[nH]nc(-c3ccccc3O)c2C(c2ccc(Cl)cc2)N1Cc1ccco1 (stereo unspecified) | – | inactive: -21.5% |
| Cn1nnnc1SCCCNCc1ccccc1OCc1ccc(Cl)cc1 | inconclusive: 23.3 µM [falling, single point] | – |
| Cc1c(C(=O)N2CCC(C)CC2)c(S(=O)(=O)N(Cc2ccccc2)C(C)(C)C)c(C)n1C | – | inactive: 0% |
| Cc1cc(C)c(-c2n[nH]c3c2C(c2ccccc2F)N(Cc2ccco2)C3=O)c(O)c1 (stereo unspecified) | inconclusive: 23.3 µM [falling, single point] | – |
| Cc1cccc(NC(=O)CSc2nc3ccc(NC(=O)COc4ccccc4C)cc3s2)c1 | inconclusive: 26.1 µM [falling, single point] | – |
| COc1ccc(Cn2c(C(=O)O)c(CNCC(C)c3ccccc3)c3ccc(OC)cc32)cc1 (stereo unspecified) | – | inactive: -8.03% |
| Cc1ccc(-n2ncc(C(=O)NCCCN3CCCCC3)c2C2CCN(C(=O)OC(C)(C)C)CC2)c(C)c1 | inconclusive: 23.3 µM [falling, partial curve, poor fit] | – |
| CCN(CC)C(=O)Cn1cc(SCC(=O)Nc2cccc(F)c2)c2ccccc21 | inconclusive: 5.21 µM [falling, single point] | – |
| Cc1ccc(C2c3c(-c4cc(C)ccc4O)n[nH]c3C(=O)N2Cc2ccco2)cc1 (stereo unspecified) | – | inactive: -28.4% |
| O=C(Cn1c(=O)c2ccccc2n(CC(=O)Nc2ccc(Cl)cc2)c1=O)NCCc1ccccc1 | active: 14.7 µM | – |
| CCOC(=O)c1c(C)[nH]c(CCC(=O)NCCCN2CCN(c3cc(Cl)ccc3C)CC2)c1C | active: 14.7 µM | – |
| O=C(Nc1ccc(C(F)(F)F)cc1)c1cc(S(=O)(=O)NC2CCCCC2)ccc1F | – | inactive: 6.25% |
| CCc1ccc(NC(=O)c2ccc(F)c(S(=O)(=O)NC3CCCCCC3)c2)cc1 | – | inactive: 6.25% |
| Cc1cccc(N2CCN(C(=O)C3CCCN(S(=O)(=O)c4ccc(Br)s4)C3)CC2)c1C (stereo unspecified) | inconclusive: 5.85 µM [falling, partial curve, poor fit] | – |
| CCOc1cc(CNC(=O)c2ccccc2NC(=O)c2nsc3ccccc23)ccc1OC | inconclusive: 14.7 µM [falling, single point] | – |
| Cc1cccc(Nc2ncc(NC(=O)c3cccc(F)c3)c(Nc3cccc(C)c3)n2)c1 | – | inactive: -24.6% |
| CCCc1cc(N2CCN(c3ccccc3)CC2)n2cnnc2n1 | – | inactive: -1.92% |
| CCOc1ccc(CCNC(=O)Cn2c(-c3cccs3)cc3cc(F)ccc32)cc1OCC | inconclusive: 10.4 µM [falling, partial curve, poor fit] | – |
| CCn1c2ccccc2c2cc(CN3CCN(Cc4cc(OC)c(O)c(OC)c4)CC3)ccc21 | inconclusive: 18.5 µM [falling, single point] | – |
| CC1CCCCN1CCCNC(=O)c1cc(Sc2cccc(Cl)c2)nc2ccccc12 (stereo unspecified) | – | inactive: 6.25% |
| CCc1nnc(NC(=O)c2nc(S(=O)(=O)Cc3cccc(C)c3)ncc2Cl)s1 | active: 9.27 µM | – |
| COc1ccc(NC(=O)Cn2c(=O)n(CCCC(=O)NCc3ccccc3OC)c(=O)c3ccccc32)cc1Cl | – | inactive: 25.7% |
